# This is one part of the list.
# What was measured:
# Assay in all cases: glycan array binding signal (z-score within array); higher = stronger binding
# Details in all cases: glycan notation: IUPAC condensed, linker removed
# [1] = biological target: Neu5Ac(a2-3)GalNAc(b1-4)GlcNAc
# Method in brief: (§1)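 Glycan array data were curated from 3228 arrays in the Consortium for Functional Glycomics database and kept only where the protein sequence was available. Glycan names were converted to IUPAC-condensed notation, and columns mapping to the same glycan were averaged. The binding signal is a within-array Z-score, averaged across arrays of the same protein sequence at different concentrations or buffers and across linkers. Negative Z-scores can be read as non-binding.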
# [2] = biological target: Neu5Ac(a2-3)[GalNAc(b1-4)]Gal(b1-4)Glc
# Method in brief: as §1
# [3] = biological target: Neu5Ac(a2-3)[GalNAc(b1-4)]Gal(b1-4)GlcNAc
# Method in brief: as §1
# [4] = biological target: Neu5Ac(a2-3)[Neu5Ac(a2-6)]GalNAc
# Method in brief: as §1
# [5] = biological target: Neu5Ac(a2-6)Gal(b1-4)GlcNAc
# Method in brief: as §1
# [6] = biological target: Neu5Ac(a2-6)Gal(b1-4)GlcNAc(b1-2)Man(a1-3)[Neu5Ac(a2-6)Gal(b1-4)GlcNAc(b1-2)Man(a1-6)]Man(b1-4)GlcNAc(b1-4)GlcNAc
# Method in brief: as §1
# [7] = biological target: Neu5Ac(a2-6)Gal(b1-4)GlcNAc(b1-3)Gal(b1-4)GlcNAc
# Method in brief: as §1
# [8] = biological target: Neu5Ac(a2-6)Gal(b1-4)GlcNAc(b1-3)Gal(b1-4)[Fuc(a1-3)]GlcNAc(b1-3)Gal(b1-4)[Fuc(a1-3)]GlcNAc
# Method in brief: as §1
# [9] = biological target: Neu5Ac(a2-6)Gal(b1-4)GlcNAc6S
# Method in brief: as §1
# Neu5Ac(a2-6)GalNAc = biological target: Neu5Ac(a2-6)GalNAc
# Method in brief: as §1
# [10] = biological target: Neu5Ac(a2-6)GalNAc(b1-4)GlcNAc
# Method in brief: as §1
# Neu5Ac(a2-8)Neu5Ac = biological target: Neu5Ac(a2-8)Neu5Ac
# Method in brief: as §1
# [11] = biological target: Neu5Ac(a2-8)Neu5Ac(a2-3)Gal(b1-4)Glc
# Method in brief: as §1
# [12] = biological target: Neu5Ac(a2-8)Neu5Ac(a2-3)[GalNAc(b1-4)]Gal(b1-4)Glc
# Method in brief: as §1
# [13] = biological target: Neu5Ac(a2-8)Neu5Ac(a2-8)Neu5Ac
# Method in brief: as §1
# [14] = biological target: Neu5Ac(a2-8)Neu5Ac(a2-8)Neu5Ac(a2-3)Gal(b1-4)Glc
# Method in brief: as §1
# [15] = biological target: Neu5Ac(a2-8)Neu5Ac(a2-8)Neu5Ac(a2-3)[GalNAc(b1-4)]Gal(b1-4)Glc
# Method in brief: as §1
# [16] = biological target: Neu5Ac(a2-8)Neu5Ac(a2-8)Neu5Ac(a2-8)Neu5Ac(a2-3)[GalNAc(b1-4)]Gal(b1-4)Glc
# Method in brief: as §1
# [17] = biological target: Neu5Ac9Ac(a2-6)Gal(b1-4)GlcNAc
# Method in brief: as §1
# [18] = biological target: Neu5Gc(a2-3)Gal(b1-3)GlcNAc
# Method in brief: as §1
# [19] = biological target: Neu5Gc(a2-3)Gal(b1-3)[Fuc(a1-4)]GlcNAc
# Method in brief: as §1
# Neu5Gc(a2-3)Gal(b1-4)Glc = biological target: Neu5Gc(a2-3)Gal(b1-4)Glc
# Method in brief: as §1
# [20] = biological target: Neu5Gc(a2-3)Gal(b1-4)GlcNAc
# Method in brief: as §1
# [21] = biological target: Neu5Gc(a2-3)Gal(b1-4)[Fuc(a1-4)]GlcNAc
# Method in brief: as §1
# [22] = biological target: Neu5Gc(a2-6)Gal(b1-4)GlcNAc
# Method in brief: as §1
# Neu5Gc(a2-6)GalNAc = biological target: Neu5Gc(a2-6)GalNAc
# Method in brief: as §1
binder,measurement,setting,value
"MLTim-4 (Mus musculus), Q6U7R4 (protein) MSKGLLLLWLVTELWWLYLTPAASEDTIIGFLGQPVTLPCHYLSWSQSRNSMCWGKGSCPNSKCNAELLRTDGTRIISRKSTKYTLLGKVQFGEVSLTISNTNRGDSGVYCCRIEVPGWFNDVKKNVRLELRRAT",glycan array binding signal (z-score),[1],-0.995
same,glycan array binding signal (z-score),[2],-1
same,glycan array binding signal (z-score),[3],-0.766
same,glycan array binding signal (z-score),[4],-0.214
same,glycan array binding signal (z-score),[5],-0.378
same,glycan array binding signal (z-score),[6],-0.9
same,glycan array binding signal (z-score),[7],-1.16
same,glycan array binding signal (z-score),[8],-0.767
same,glycan array binding signal (z-score),[9],-0.485
same,glycan array binding signal (z-score),Neu5Ac(a2-6)GalNAc,-0.246
same,glycan array binding signal (z-score),[10],-0.425
same,glycan array binding signal (z-score),Neu5Ac(a2-8)Neu5Ac,0.032
same,glycan array binding signal (z-score),[11],-0.77
same,glycan array binding signal (z-score),[12],-0.484
same,glycan array binding signal (z-score),[13],-0.988
same,glycan array binding signal (z-score),[14],-0.679
same,glycan array binding signal (z-score),[15],-0.741
same,glycan array binding signal (z-score),[16],-0.763
same,glycan array binding signal (z-score),[17],-0.361
same,glycan array binding signal (z-score),[18],-0.343
same,glycan array binding signal (z-score),[19],0.211
same,glycan array binding signal (z-score),Neu5Gc(a2-3)Gal(b1-4)Glc,0.349
same,glycan array binding signal (z-score),[20],-0.396
same,glycan array binding signal (z-score),[21],1.3
same,glycan array binding signal (z-score),[22],0.102
same,glycan array binding signal (z-score),Neu5Gc(a2-6)GalNAc,-0.077

# An excerpt of these results, as tab-separated lines:
binder	measurement	setting	value
MLTim-4 (Mus musculus), Q6U7R4 (protein) MSKGLLLLWLVTELWWLYLTPAASEDTIIGFLGQPVTLPCHYLSWSQSRNSMCWGKGSCPNSKCNAELLRTDGTRIISRKSTKYTLLGKVQFGEVSLTISNTNRGDSGVYCCRIEVPGWFNDVKKNVRLELRRAT	glycan array binding signal (z-score)	[2]	-1
same	glycan array binding signal (z-score)	[3]	-0.766

# Reference: the supplement of paper PMC8728848
